Data reported in patent US20240418723A1, “SEQUENTIAL TREATMENTS AND BIOMARKERS TO REVERSE RESISTANCE TO KINASE INHIBITORS” (Queen Mary University of London, priority 2021, published 2024).
For at least one compound, name, drawing or mass did not settle the structure.

System: primary AML cells
Assay: Association between kinase inhibitor sensitivity and CD marker expression in primary AML cells
Assay type: cell-based, human
Conditions: 30 primary AML cases; Spearman rank association (FIG. 8E)

Row | SMILES | sensitivity to kinase inhibitor treatment in relation to CD marker expression
1 | O=C(O)c1ccc2c(c1)nc(Nc1cccc(Cl)c1)c1ccncc12 [silmitasertib] | greater in cases showing expression of CD117 (c-Kit), CD16 and CD15
2 | CC(=O)Nc1cccc(-n2c(=O)n(C3CC3)c(=O)c3c(Nc4ccc(I)cc4F)n(C)c(=O)c(C)c32)c1 [trametinib] | CD11b and CD64 expression was associated with sensitivity
